Paper PMC11177981 (2024)
Results are given in words; binding and its absence hold for the method and conditions named. Binding seen in cells or lysates may run through a third protein. Where a sequence is shown, tags or fusion partners need not be part of it.

Tests used:
Assay in all cases: co-IP; HEK293T cells transfected with FLAG-tagged RIG-I or MDA5 constructs and Myc-tagged GLUT4; anti-FLAG magnetic beads on lysate (2% DDM, 25mM HEPES, 150mM NaCl)
[1] = biological target: FLAG-RIG-I ΔCARD (human)
[2] = biological target: FLAG-RIG-I C-terminal domain (CTD) (human)
[3] = biological target: FLAG-MDA5 ΔCARD

Measured: binding

B1: GLUT4 (Myc-tagged) expressed in HEK293T cells (protein, UniProt P14672 1-509)
chain: MPSGFQQIGSEDGEPPQQRVTGTLVLAVFSAVLGSLQFGYNIGVINAPQKVIEQSYNETWLGRQGPEGPSSIPPGTLTTLWALSVAIFSVGGMISSFLIGIISQWLGRKRAMLVNNVLAVLGGSLMGLANAAASYEMLILGRFLIGAYSGLTSGLVPMYVGEIAPTHLRGALGTLNQLAIVIGILIAQVLGLESLLGTASLWPLLLGLTVLPALLQLVLLPFCPESPRYLYIIQNLEGPARKSLKRLTGWADVSGVLAELKDEKRKLERERPLSLLQLLGSRTHRQPLIIAVVLQLSQQLSGINAVFYYSTSIFETAGVGQPAYATIGAGVVNTVFTLVSVLLVERAGRRTLHLLGLAGMCGCAILMTVALLLLERVPAMSYVSIVAIFGFVAFFEIGPGPIPWFIVAELFSQGPRPAAMAVAGFSNWTSNFIIGMGFQYVAEAMGPYVFLLFAVLLLGFFIFTFLRVPETRGRTFDQISAAFHRTPSLLEQEVKPSTELEYLGPDEND
no binding: all assays above
